Reference: PMC9456514, “Three-Dimensional Envelope and Subunit Interactions of the Plastid-Encoded RNA Polymerase from Sinapis alba” (International Journal of Molecular Sciences, 2022)
No constants are given. Whether binding was seen depends on the method and setting. Binding seen in cells or lysates may run through a third protein. Some binding calls cover weakened binding; strength is not graded here.

Biological target: T1, β subunit of the plastid-encoded RNA polymerase (SaRpoB) (Sinapis alba (endogenous in cotyledon chloroplasts)) (UniProt P46818)
T1 sequence: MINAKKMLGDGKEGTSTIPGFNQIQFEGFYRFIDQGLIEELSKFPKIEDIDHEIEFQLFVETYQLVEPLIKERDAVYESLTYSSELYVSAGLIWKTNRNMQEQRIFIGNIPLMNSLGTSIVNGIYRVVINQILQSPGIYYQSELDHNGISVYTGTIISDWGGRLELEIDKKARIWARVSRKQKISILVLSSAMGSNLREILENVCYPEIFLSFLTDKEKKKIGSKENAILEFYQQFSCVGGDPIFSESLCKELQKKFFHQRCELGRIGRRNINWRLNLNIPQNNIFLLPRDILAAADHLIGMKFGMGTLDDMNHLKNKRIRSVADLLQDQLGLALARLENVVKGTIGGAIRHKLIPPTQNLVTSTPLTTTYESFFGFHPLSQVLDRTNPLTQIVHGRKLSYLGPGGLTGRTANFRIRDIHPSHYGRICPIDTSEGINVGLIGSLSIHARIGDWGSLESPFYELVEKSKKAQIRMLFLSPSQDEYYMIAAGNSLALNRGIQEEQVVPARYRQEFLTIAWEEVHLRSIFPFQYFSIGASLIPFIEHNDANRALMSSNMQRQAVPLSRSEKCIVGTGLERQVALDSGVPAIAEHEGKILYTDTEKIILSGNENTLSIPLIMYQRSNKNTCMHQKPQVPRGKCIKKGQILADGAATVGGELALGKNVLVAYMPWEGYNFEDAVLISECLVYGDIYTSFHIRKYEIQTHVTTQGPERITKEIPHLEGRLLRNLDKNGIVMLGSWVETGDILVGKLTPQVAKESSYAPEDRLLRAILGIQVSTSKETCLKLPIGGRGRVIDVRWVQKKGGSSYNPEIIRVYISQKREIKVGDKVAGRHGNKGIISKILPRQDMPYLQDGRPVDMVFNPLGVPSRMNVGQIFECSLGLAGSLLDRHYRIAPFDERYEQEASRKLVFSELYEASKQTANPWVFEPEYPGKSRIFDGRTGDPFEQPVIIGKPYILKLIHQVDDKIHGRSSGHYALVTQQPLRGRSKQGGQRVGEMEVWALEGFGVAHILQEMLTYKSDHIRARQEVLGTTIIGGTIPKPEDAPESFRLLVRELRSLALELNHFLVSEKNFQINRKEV
Experiment: cross-linking; PEP-enriched fraction from two independent purifications (replicates 2 and 3), a few micrograms, 100 µM DSBU, 1 h at room temperature, HEPES buffer pH 7.8; trypsin; nanoLC-MS/MS; MeroX 2.0, FDR cut-off 1%, minimum score 30; the partners were together in the native complex fraction

- binding: binds
B1: β’ subunit of the plastid-encoded RNA polymerase (SaRpoC1) (protein, UniProt P46819 1-688)
chain: MIDRYKHQQLRIGLVSPQQISAWATKKIPNGEIVGEVTKPYTFHYKTNKPEKDGLFCERIFGPIKSGICACGNYRVIGDEKGDPKFCEQCGVEFVDSRIRRYQMGYIKLTCPVTHVWYLKRLPSYIANLLDKPLKELEGLVYCDVCFDRNPNFSFARPITKKPTFLRLRGSFEYEIQSWKYSIPLFFTTQGFEIFRNREISTGAGAIREQLADLDLRIIIENSLVEWKQLGEEGPTGNEWEDRKIVRRKDFLVRRMELAKHFIRTNIEPEWMVLCLLPVLPPELRPIIQIEGGKLMSSDINELYRRVIYRNNTLTDLLTTSRSTPGELVMCQEKLVQEAVDTLLDNGIRGQPMRDGHNKVYKSFSDVIEGKEGRFRETLLGKRVDYSGRSVIVVGPSLSLHRCGLPREIAIELFQTFVIRGLIRQHLASNIGVAKSQIREKKPIVWEILQEVMQGHPVLLNRAPTLHRLGIQSFQPILVEGRTICLHPLVCKGFNADFDGDQMAVHVPLSLEAQAEARLLMFSHMNLLSPAIGDPISVPTQDMLIGLYVLTSGTRRGICANRYNPCNRKNYQNERIYETNYKYMKEPFFCNSYDAIGAYRQKRINLDSPLWLRWQLDQRVIASKEVPIEVHYESFGNYHEIYAHYLIVRSVKKETLYIYIRTTVGHISLYREIEEAIQGFSQACSYDT
